# Test results: patent publication US20140328900A1
# Results are given in words; binding and its absence hold for the method and conditions named. Some results given as binding are weak or reduced against the parent protein; the word gives no strength.
# T1: G protein-coupled receptor RXFP1 (UniProt Q9HBX9)
# T1 sequence (looked up): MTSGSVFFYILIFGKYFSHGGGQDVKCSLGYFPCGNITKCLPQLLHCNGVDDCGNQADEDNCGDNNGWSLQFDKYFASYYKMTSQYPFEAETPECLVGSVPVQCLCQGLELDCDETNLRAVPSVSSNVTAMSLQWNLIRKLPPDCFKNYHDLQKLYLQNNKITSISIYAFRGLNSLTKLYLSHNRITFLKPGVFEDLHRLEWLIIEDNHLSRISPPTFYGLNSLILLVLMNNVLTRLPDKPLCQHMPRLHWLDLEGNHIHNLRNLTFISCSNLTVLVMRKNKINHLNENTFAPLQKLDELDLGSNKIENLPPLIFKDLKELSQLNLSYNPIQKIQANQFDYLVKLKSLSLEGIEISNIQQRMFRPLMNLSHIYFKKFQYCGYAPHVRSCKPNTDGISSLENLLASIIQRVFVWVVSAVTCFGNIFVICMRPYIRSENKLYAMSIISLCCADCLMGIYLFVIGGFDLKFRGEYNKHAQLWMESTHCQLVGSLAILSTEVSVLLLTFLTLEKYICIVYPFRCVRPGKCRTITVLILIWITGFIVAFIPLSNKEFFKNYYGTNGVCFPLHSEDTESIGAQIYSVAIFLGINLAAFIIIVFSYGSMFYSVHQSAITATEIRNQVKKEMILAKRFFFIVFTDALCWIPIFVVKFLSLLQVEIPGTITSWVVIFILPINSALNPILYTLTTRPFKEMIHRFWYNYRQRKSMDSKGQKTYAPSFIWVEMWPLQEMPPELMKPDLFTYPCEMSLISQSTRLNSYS
# B1: synthetic human relaxin-2 (ligand)
# chain 1: ELYSALANKCCHVGCTKRSLARFC
# chain 2: DSWMEEVIKLCGRELVRAQIAICGMSTWS
# modifications: pyroglutamic acid (pGlu) at position 1 of the A chain
# Target: T1, G protein-coupled receptor RXFP1
# Assay: competition binding on HEK-293T cells expressing RXFP1; displacement of europium-labeled relaxin-2
binder,measurement,value
B1,binding,binds
